{"source": "ChEMBL document CHEMBL5050828", "about": "“Inhibitors of DUX4 induction for regulation of muscle function” (2021)", "assay": "Downregulation of DUX4 expression in facioscapulohumeral muscular dystrophy (FSHD) affected human embryonic stem cell (hESC)-derived skeletal myoblasts and measured by immunocytochemistry analysis", "assay_type": "functional, cell-based", "conditions": "Myoblast", "data": [{"compound": "Cc1ccc(NC(=O)c2ccc(CN3CCN(C)CC3)cc2)cc1Nc1nccc(-c2cccnc2)n1", "note": "[IMATINIB]", "values": [{"measurement": "EC50", "result": 380, "unit": "µM"}]}]}
